In paper PMC8890623:

Columns and labels:
Assay in all cases: pull-down (biotinylated oligo, western blot)
[1] = molecular target: T1, yTop1 WT (Saccharomyces cerevisiae (YPH45-derived)) (UniProt P04786); details: Oligos folded in 10 mM Tris pH 7.5, 100 mM KCl, binding in lysis buffer B: 50 mM HEPES pH 7.5, 1 mM EDTA, 300 mM KCl, 10% glycerol, 0.05% NP40, 1 mM PMSF, 1 mM DTT, protein in an extract, protein details: C-terminal 3XFLAG
T1 sequence (looked up, limits assumed): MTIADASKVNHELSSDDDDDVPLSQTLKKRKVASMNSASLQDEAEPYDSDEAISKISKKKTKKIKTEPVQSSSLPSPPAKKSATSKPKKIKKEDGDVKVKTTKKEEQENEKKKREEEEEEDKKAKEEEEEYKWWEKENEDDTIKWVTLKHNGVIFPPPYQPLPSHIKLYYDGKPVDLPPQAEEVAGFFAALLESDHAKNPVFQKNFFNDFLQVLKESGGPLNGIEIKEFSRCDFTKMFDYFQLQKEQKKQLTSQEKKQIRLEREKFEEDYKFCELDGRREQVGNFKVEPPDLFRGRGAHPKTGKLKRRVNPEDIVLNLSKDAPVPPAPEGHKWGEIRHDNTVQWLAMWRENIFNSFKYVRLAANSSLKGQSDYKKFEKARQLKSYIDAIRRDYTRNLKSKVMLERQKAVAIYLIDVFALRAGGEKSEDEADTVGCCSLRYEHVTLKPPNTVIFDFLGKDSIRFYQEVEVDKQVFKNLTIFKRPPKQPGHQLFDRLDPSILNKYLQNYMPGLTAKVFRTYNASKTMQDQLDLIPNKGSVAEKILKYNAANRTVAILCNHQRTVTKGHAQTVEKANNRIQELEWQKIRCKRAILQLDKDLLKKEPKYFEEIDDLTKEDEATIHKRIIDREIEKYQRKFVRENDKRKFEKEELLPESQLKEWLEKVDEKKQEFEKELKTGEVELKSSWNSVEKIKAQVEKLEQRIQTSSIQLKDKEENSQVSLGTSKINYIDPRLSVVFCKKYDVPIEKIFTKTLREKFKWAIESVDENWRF

[2] = molecular target: T2, yTop1Y727F (Saccharomyces cerevisiae (YPH45-derived)) (UniProt P04786); details: Oligos folded in 10 mM Tris pH 7.5, 100 mM KCl, binding in lysis buffer B: 50 mM HEPES pH 7.5, 1 mM EDTA, 300 mM KCl, 10% glycerol, 0.05% NP40, 1 mM PMSF, 1 mM DTT, protein in an extract, protein details: C-terminal 3XFLAG
T2 sequence (looked up, limits assumed): T1 sequence (looked up, limits assumed) with Y727F

[3] = molecular target: yTop1Y740Stop (Saccharomyces cerevisiae (YPH45-derived)) (UniProt P04786); details: Oligos folded in 10 mM Tris pH 7.5, 100 mM KCl, binding in lysis buffer B: 50 mM HEPES pH 7.5, 1 mM EDTA, 300 mM KCl, 10% glycerol, 0.05% NP40, 1 mM PMSF, 1 mM DTT, protein in an extract, residues 1-739, protein details: C-terminal 3XFLAG
[4] = molecular target: T3, yTop1S733E (Saccharomyces cerevisiae (YPH45-derived)) (UniProt P04786); details: Oligos folded in 10 mM Tris pH 7.5, 100 mM KCl; binding in lysis buffer B: 50 mM HEPES pH 7.5, 1 mM EDTA, 300 mM KCl, 10% glycerol, 0.05% NP40, 1 mM PMSF, 1 mM DTT; protein in an extract; protein details: C-terminal 3XFLAG; folded or branched DNA
T3 sequence (looked up, limits assumed): T1 sequence (looked up, limits assumed) with S733E

Row | Sequence | binding result ([1]; single-stranded DNA) | binding result ([2]; single-stranded DNA) | binding result ([3]; single-stranded DNA) | binding result ([1]; folded or branched DNA) | binding result [4] | binding result ([2]; folded or branched DNA) | binding result ([3]; folded or branched DNA)
1 | GAGCTGAGGTGAGCTGGGCTGAGCTGAGGTGAGCTGGGCTGAGCT [M1] | no binding | no binding | no binding |  |  |  | 
2 | GAGCTGGGGTGAGCTGGGCTGAGCTGGGGTGAGCTGGGCTGAGCT [SμG] |  |  |  | binds | no binding | binds | binds

Changes are numbered by the printed parent chain. Construct, isoform or probe ends are uncertain for at least one entry. At least one result comes from cells or an extract, where the contact may be indirect. No signal at the amounts used counts as a negative. For some of these results: Protein sequences can lack the tags named with them.
